Some of the results follow. Further columns of the screen follow, without active or inactive calls. Most of these compounds were active or inconclusive in the main read-out, so they are no random draw. Potencies come from curve fits of mixed quality, noted in brackets.

Results on 37 compounds are retold here after PubChem BioAssay AID2685 (National Center for Advancing Translational Sciences (NCATS), 2010).

A short description of this experiment: qHTS Assay for Lipid Storage Modulators in Drosophila S3 Cells.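 As to cell number change: cells counted by Cell Tracker Red CMTPX staining in the red channel.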 As to conditions: BODIPY lipid droplet fluorescence, 18-24 h; for cell number change: measured here: cell count max response, cells fed with added oleic acid. The gist of the method:
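Laser-scanning cytometry quantifies lipid droplet accumulation (500–530 nm total intensity; droplet/cell object ratio) in oleic acid-fed (400 uM added) Drosophila S3 cells treated with a concentration series. 20 uM Triacsin C defined 100% inhibition.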

[1] abbreviates: measured here: cell number channel AC50, cells fed with added oleic acid.
[2] abbreviates: measured here: lipid fluorescence (Fed channel) AC50, cells fed with added oleic acid.

For `CCOc1ccc(NC(=O)Nc2ccc3nccnc3c2)cc1`, the cell number change turned out to be 24.8%. Moreover, the AC50 under setting [1] was 1460 nM [rising, full curve, poor fit].

Regarding `COC(=O)C(N)Cc1ccc(O)cc1` (stereo not given), the cell number change is -27.4%. The AC50 under setting [2] is 461 nM [falling, full curve].

`O=C(O)C1C2C=CC(C2)C1C(=O)Nc1ccc2c(c1)OCCO2` (stereo not given): the cell number change is -11.6%.

`COc1ccccc1C(=O)NCC(=O)OCC(=O)Nc1cccc(S(=O)(=O)N2CCCCCC2)c1`: the cell number change is -37.2%. Under setting [1], the AC50 is 291 nM [falling, full curve]. For the same compound, the AC50 under setting [2] was 1460 nM [falling, partial curve, poor fit].

Take `CN1c2ccccc2C(C)(C)C12CC(c1ccc(Cl)c(S(=O)(=O)N3CCCC3)c1)=NO2` (stereo not given): the cell number change is -45.8%. Also, under setting [1], the AC50 is 14600 nM [falling, single point]. For the same compound, under setting [2], the AC50 is 1640 nM [rising, partial curve, poor fit].

As for `COc1ccc(C2C(C(=O)/C=C/c3ccco3)=C(O)C(=O)N2CCN2CCOCC2)cc1OC` (stereo not given), the cell number change is -35.7%. Under setting [1], the AC50 is 20600 nM [falling, single point]. The AC50 under setting [2] is 23100 nM [falling, single point].

For the compound `COc1ccc(/C=N/NC(=O)C2C3CCCCC32)cc1OC` (stereo not given), the cell number change was 0.645%. The AC50 under setting [1] was 73.1 nM [falling, single point]. Further, the AC50 under setting [2] is 92 nM [falling, partial curve, poor fit].

As for `C=CCC1NS(=O)(=O)OC(COC)C1C` (stereo not given), the cell number change worked out at 16.8%. Also, the AC50 under setting [2] was 29100 nM [rising, single point].

As to `Cc1ccc(CNC(=O)CN(C(=O)C2(C)CC(=O)N=C3C=CC=CN32)c2ccc(F)cc2)cc1` (stereo not given), the cell number change came to 7.21%. For the same compound, the AC50 under setting [2] is 29100 nM [falling, single point].

For `COc1ccccc1C(=O)COC(=O)/C(=C/c1ccccc1)NC(C)=O`, the cell number change was -25%. In addition, the AC50 under setting [2] is 7310 nM [falling, partial curve, poor fit].

`CCO[C@@H]1OC(C(=O)NC2CC2)=C[C@H](C(C)(C)C)[C@H]1CCCO`: under setting [2], the AC50 was 651 nM [falling, single point].

Take `CC(C)CNC(=O)c1cc(-c2ccc3c(c2)OCO3)on1`: the cell number change stood at 27.9%. For the same compound, under setting [2], the AC50 was 10300 nM [rising, partial curve].

For `Cc1cc([N+](=O)[O-])nn1CC(=O)N/N=C/c1ccccc1F`, the AC50 under setting [2] is 4610 nM [rising, full curve, poor fit].

For `COc1ccc(C(=O)NC(=S)Nc2ccc([N+](=O)[O-])cc2C)cc1OC`, the cell number change is -10.4%. The AC50 under setting [1] is 2590 nM [rising, partial curve].

For the compound `CCOC(=O)C1CCN(Cc2ccc(F)cc2F)CC1`, the cell number change is -63%. Moreover, under setting [1], the AC50 was 3660 nM [falling, full curve]. For the same compound, under setting [2], the AC50 was 3660 nM [falling, full curve].

`CCC1=NC(c2ccc(OC)cc2OC)N(O)C1(C)C` (stereo not given): the cell number change was -61.8%. For the same compound, the AC50 under setting [1] is 580 nM [falling, full curve]. Besides, under setting [2], the half-maximal activity concentration (AC50) is 920 nM [falling, full curve].

Turning to `N#Cc1c(SCC(=O)N2CCOCC2)nsc1SCC(=O)N1CCOCC1`, the cell number change is -189%. For the same compound, the AC50 under setting [1] is 20600 nM [falling, partial curve]. For the same compound, the AC50 under setting [2] was 580 nM [falling, single point].

As to `O=C(Nc1ccc(N2C(=O)C3CCCCC3C2=O)cc1Cl)c1cccs1` (stereo not given), the half-maximal activity concentration (AC50) under setting [1] is 731 nM [rising, single point].

For the compound `O=C(CN1C(=O)NC2(CCCCC2)C1=O)NNC(=O)C1CC1`, the cell number change came out at 1.95%. Also, the AC50 under setting [2] was 580 nM [falling, full curve].

`O=C(OCC(=O)N1CCN(S(=O)(=O)c2ccccc2)CC1)c1ccc([N+](=O)[O-])o1`: the cell number change is -6.64%.

For `CCC(C)CCN1CCN=C1Nc1ccccc1` (stereo not given), the cell number change was -14.5%. Moreover, under setting [2], the AC50 is 29100 nM [falling, single point].

Turning to `CC(=O)C(C(C)=O)c1c(Cl)c(O)c(O)c2c(C(=O)c3ccccc3)coc12`, the cell number change is -19.9%. In addition, the AC50 under setting [2] was 29100 nM [falling, single point].

Consider `COc1ccccc1NC(=O)COC(=O)c1c[nH]c2ccccc12`, for which the cell number change was determined as 31.9%. Besides, the concentration at half-maximal activity (AC50) under setting [1] is 1160 nM [rising, full curve, poor fit].

As for `CCOc1ccc(C(=O)Nc2ccccc2C(=O)O)cc1`, the cell number change was -3.68%. Further, the AC50 under setting [2] is 2590 nM [rising, partial curve].

Turning to `COc1ccc(N2C(=O)CC(NCc3cccc(F)c3)C2=O)cc1` (stereo not given), the cell number change was -34.1%. Also, the AC50 under setting [1] was 2590 nM [falling, partial curve, poor fit]. Besides, the AC50 under setting [2] is 651 nM [falling, single point].

Regarding `COc1ccc(/C=C/C(=O)Nc2c(C)nn(C)c2C)cc1COc1ccc(Br)cc1`, the cell number change was -58.9%. The AC50 under setting [1] was 9200 nM [falling, partial curve]. Also, the AC50 under setting [2] was 10300 nM [falling, partial curve].

Take `COc1ccc(C2Nc3cccc4cccc(c34)N2)cc1`: the cell number change is -14%. Further, the AC50 under setting [2] was 4.61 nM [falling, full curve, poor fit].

For the compound `CCOc1ccc(NC(=S)N2c3ccccc3CC2C)cc1` (stereo not given), the AC50 under setting [2] is 580 nM [rising, single point].

As to `COc1ccc(F)cc1S(=O)(=O)NC1CCCC1`, the cell number change was -25.6%.

For the compound `C=CCOC(=O)C1=C(C)NC(=O)NC1c1ccc(Cl)cc1` (stereo not given), the cell number change is -11.5%. Further, the AC50 under setting [2] is 4.61 nM [falling, full curve, poor fit].

Turning to `NNC(=O)c1cccc(COc2ccc3c(c2)CCC3)c1`, the cell number change amounted to 0.11%. The AC50 under setting [1] was 231 nM [rising, full curve, poor fit]. Moreover, the AC50 under setting [2] is 517 nM [rising, full curve].

Turning to `CCCCN(CC)CCNc1c(NC2CCN(C(=O)OCC)CC2)c(=O)c1=O`, the cell number change stood at 2.03%. The AC50 under setting [2] was 651 nM [falling, full curve, poor fit].

For `CCC(C(=O)OC)n1cnc2scc(-c3ccc(C)c(C)c3)c2c1=O` (stereo not given), the cell number change was 1.17%.

As to `CC1CCC2(CC1)NC(=O)N(NC(=O)CSc1nnc(NC3CC3)s1)C2=O` (stereo not given), the cell number change was -3.06%.

For `COc1cc(C(=S)N2CCCC2)cc(Cl)c1OCC(=O)Nc1ccc(C)cc1C`, the cell number change came out at 15.8%. The AC50 under setting [2] was 1840 nM [rising, partial curve].

Consider `CCn1c2ccc(C)cc2c2n[nH]c(=S)nc21`, for which the cell number change came out at 2.93%. In addition, under setting [2], the AC50 was 580 nM [rising, single point].

For `COc1ccccc1-c1nnc(SCCN2CCOCC2)n1-c1ccc(C)cc1`, the cell number change stood at 3.71%. In addition, the AC50 under setting [2] is 29100 nM [rising, single point].
